Test results from PMC12805371.
Results are given in words; binding and its absence hold for the method and conditions named. Binding seen in cells or lysates may run through a third protein. Some binding calls cover weakened binding; strength is not graded here.

Sequences of proteins named here, by UniProt entry; tags and fusion partners are left off. A change or cut given only in a name is not applied to a line headed by its entry. Residues count along the entry.
UniProt O75808: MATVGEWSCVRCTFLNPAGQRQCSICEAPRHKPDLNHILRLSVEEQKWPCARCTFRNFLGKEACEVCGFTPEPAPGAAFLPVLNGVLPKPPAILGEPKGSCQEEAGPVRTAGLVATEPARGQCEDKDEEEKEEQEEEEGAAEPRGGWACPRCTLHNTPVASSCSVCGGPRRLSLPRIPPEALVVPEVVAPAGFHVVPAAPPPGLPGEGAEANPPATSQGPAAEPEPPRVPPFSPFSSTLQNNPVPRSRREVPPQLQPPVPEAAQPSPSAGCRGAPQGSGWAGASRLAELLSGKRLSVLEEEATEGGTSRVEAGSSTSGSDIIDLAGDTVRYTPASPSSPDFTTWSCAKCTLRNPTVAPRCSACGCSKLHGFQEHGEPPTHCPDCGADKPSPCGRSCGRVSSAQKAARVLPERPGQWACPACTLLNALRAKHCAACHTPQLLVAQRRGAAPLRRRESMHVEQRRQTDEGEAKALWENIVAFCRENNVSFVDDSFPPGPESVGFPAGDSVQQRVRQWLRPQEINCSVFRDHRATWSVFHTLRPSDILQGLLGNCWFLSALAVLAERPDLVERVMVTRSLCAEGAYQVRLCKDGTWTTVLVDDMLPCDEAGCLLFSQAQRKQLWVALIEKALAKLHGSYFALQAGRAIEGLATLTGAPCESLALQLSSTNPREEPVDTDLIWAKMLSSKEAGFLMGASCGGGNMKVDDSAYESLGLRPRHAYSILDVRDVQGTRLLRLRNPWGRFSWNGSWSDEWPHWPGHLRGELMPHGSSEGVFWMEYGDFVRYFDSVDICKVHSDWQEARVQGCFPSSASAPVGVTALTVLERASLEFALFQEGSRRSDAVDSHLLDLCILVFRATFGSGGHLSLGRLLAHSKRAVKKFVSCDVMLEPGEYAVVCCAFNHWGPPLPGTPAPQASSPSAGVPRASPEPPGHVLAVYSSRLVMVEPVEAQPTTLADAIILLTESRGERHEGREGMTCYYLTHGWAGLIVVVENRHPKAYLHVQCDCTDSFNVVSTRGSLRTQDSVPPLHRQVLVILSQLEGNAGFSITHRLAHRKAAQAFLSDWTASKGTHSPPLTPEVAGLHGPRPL
UniProt P22223, residues 108-829: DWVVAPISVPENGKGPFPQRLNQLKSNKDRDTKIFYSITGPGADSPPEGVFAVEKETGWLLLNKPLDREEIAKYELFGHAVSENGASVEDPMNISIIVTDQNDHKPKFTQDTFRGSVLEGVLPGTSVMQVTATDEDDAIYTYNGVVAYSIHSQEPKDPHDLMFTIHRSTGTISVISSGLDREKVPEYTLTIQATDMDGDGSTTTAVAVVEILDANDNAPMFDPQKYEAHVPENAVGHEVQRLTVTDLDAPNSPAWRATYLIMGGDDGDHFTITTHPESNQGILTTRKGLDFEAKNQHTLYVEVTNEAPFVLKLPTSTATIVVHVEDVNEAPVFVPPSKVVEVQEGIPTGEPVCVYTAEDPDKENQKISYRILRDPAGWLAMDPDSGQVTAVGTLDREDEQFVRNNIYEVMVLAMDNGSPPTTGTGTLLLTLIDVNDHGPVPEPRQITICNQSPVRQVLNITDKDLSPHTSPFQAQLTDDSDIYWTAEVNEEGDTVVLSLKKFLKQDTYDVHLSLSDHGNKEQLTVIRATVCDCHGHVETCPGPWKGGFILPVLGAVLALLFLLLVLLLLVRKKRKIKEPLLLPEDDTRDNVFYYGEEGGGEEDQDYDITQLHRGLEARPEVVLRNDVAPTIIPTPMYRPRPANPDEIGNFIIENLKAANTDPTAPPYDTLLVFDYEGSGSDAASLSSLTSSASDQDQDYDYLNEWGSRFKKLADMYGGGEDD
UniProt P35221: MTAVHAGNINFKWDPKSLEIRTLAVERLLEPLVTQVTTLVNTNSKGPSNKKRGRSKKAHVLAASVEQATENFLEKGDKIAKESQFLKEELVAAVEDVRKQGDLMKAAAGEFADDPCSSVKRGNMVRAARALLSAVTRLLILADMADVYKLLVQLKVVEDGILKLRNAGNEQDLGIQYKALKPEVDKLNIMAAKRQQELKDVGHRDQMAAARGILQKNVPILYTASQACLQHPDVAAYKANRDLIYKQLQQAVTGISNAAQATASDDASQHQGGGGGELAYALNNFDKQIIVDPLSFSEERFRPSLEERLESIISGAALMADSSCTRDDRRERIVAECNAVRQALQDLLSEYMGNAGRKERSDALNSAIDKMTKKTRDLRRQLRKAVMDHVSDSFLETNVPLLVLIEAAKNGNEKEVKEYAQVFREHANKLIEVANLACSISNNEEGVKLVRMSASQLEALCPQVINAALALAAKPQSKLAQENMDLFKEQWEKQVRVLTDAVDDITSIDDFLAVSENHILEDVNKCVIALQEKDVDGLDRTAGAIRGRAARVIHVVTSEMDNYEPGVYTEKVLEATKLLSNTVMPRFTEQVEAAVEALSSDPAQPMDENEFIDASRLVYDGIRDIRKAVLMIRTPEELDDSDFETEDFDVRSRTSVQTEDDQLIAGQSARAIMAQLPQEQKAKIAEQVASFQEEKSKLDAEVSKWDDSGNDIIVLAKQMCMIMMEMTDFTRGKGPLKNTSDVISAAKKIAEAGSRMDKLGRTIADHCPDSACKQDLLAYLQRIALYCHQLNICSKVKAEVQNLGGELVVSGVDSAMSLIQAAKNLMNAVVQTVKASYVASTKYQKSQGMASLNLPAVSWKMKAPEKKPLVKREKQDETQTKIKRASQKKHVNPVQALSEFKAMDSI

Legend:
[1] = target: FLAG-tagged WT CAPN15 (human) (UniProt O75808); assay: co-IP; lysates of KO, WTtg, CStg and NEtg cells (stable FLAG-CAPN15 forms) immunoprecipitated with anti-FLAG antibody beads, western blotting; cells treated with DMSO or 1 μM MLN7243 (immunoprecipitation reduced), or with or without 2 mM EDTA for 30 min (immunoprecipitation enhanced in CStg)
[2] = target: FLAG-tagged protease-inactive CAPN15C552S (human) (UniProt O75808); assay: as above

| Substance | binding [1] | binding [2] |
| --- | --- | --- |
| P-cadherin/CDH3 (from UniProt P22223 108-829) | binds | binds |
| α-catenin/CTNNA1 (from UniProt P35221 1-906) | binds | binds |
